Assay results: PubChem BioAssay AID1487 (National Center for Advancing Translational Sciences (NCATS), 2009)
Out of some 200,000 compounds screened, about 25 (0.01%) were called active. This list was built around the results that the source calls inconclusive (neither active nor inactive); the mix of calls is not that of the screen. Calls come from the whole dose curve; as a rule, active = well fitted inhibition curve with a large enough effect in the signal ratio, with a control signal flat (not every such curve was filed as active); inconclusive = small, poorly fitted or top-dose-only effect, or effect the other way, or a change in a side signal; inactive = flat fitted curve, though single readings scatter; the % refers to the signal ratio. Potencies of inconclusive entries are doubtful fits and often do not repeat.

Experiment: qHTS Assay for Modulators of Lamin A Splicing
Conditions: HeLa LMNA splicing GFP/RFP minigene ratio, 48 h; ratio change, negative = inhibition: at 46.1 µM (top of the series) unless noted
Outline: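 S3 HeLa stable clones carrying a lamin A-EGFP splicing minigene plus DsRed2 were seeded at 600 cells/well in Opti-MEM with 2% FBS, pin-dosed and incubated 48 h at 37°C. Acumen cytometry (488 nm) gave the GFP/RFP total-intensity ratio.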
% is set by controls: 0 for no effect and ±100 for the full control effect; potency is the fitted concentration of half-maximal effect.

| SMILES | ratio change, negative = inhibition | Potency |
| --- | --- | --- |
| C=CCn1cc(C(=O)NCc2ccc3c(c2)OCO3)c(=O)c2cc(S(=O)(=O)N(CC)CC)ccc21 | inconclusive: -4.3% | – |
| CCOc1ccc(S(=O)(=O)N2CCN(C(=S)NCc3ccccc3)CC2)cc1 | inactive: -18.9% [at 46 µM] | – |
| O=C1NN(c2ccc(F)cc2)C(=O)/C1=C/c1cccs1 | inconclusive: 25.7% [at 46 µM] | – |
| COc1cccc(NC(=O)C(c2ccccc2)N2CCNC(=O)C2)c1 (centres undefined) | inconclusive: -22.3% [at 46 µM] | – |
| COc1cccc(NC(=O)c2cc(Cl)nnc2Cl)c1 | inconclusive: -47.4% [at 46 µM] | – |
| CC(C)(C)c1ccc2c(c1)N(CC(=O)O)C(=O)CO2 | inactive: -4.21% | – |
| CCOc1ccc(N2C(=O)C3C(c4ccccc4F)NN(C(=O)c4ccc(C)cc4)C3C2=O)cc1 (centres undefined) | inconclusive: -1.81% | – |
| COc1cc(C)c(C(=O)Oc2cc(C)c(C(=O)O)c(O)c2C)c(OC)c1C | inconclusive: -6.98% | – |
| Cc1cc(=O)oc2cc(N3C(=O)CC(Cc4ccccc4)C3=O)ccc12 (centres undefined) | inconclusive: 7.34% [at 46 µM] | – |
| CC1CCc2c(sc3nc(CN4CCOCC4)nc(Sc4ccccc4)c23)C1 (centres undefined) | inactive: -9.2% | – |
| C/C(=N\NC(=O)C(c1ccncc1)N1CCOCC1)c1ccc(Br)cc1 (centres undefined) | inconclusive: -8.5% | – |
| Cc1cccc(C(=O)N2c3ncnn3C3(CCCCC3)[C@@H]3CCCC[C@@H]32)c1 | inconclusive: -35.6% [at 46 µM] | – |
| Cc1cc(C(=O)Nc2nnc(C3CCCCC3)s2)no1 | inactive: -1.87% | – |
| O=C(Nc1ccc(Cl)cc1)N1CCC(c2nc(-c3cccs3)no2)CC1 | – | inconclusive: 25.1 µM [fluorescent, single point] |
| COc1cc([N+](=O)[O-])ccc1NC(=O)N1CCC2(CC1)Nc1ccccc1-n1cccc12 | inactive: -3.64% [at 46 µM] | – |
| CCNc1ncc2ncc(=O)n(Cc3ccc(F)cc3)c2n1 | – | inconclusive: 10 µM [inhibitor, partial curve] |
| Cc1ccc(C)c(/C(O)=C2\C(=O)C(=O)N(Cc3cccnc3)C2c2cccnc2)c1 (centres undefined) | inactive: 20.7% | – |
| CCOc1ccccc1NC1=C(Cl)C(=O)N(Cc2ccccc2)C1=O | inconclusive: -24.1% | – |
| O=C(NN=C1CCCC1)NC1CCCCC1 | inactive: -0.64% | – |
| COCCCNC(=O)c1cc2n(n1)CCCN(Cc1ccc(C)cc1)C2=O | inactive: 8.62% [at 46 µM] | – |
| Cc1ccc(OCCCCN2CCCC(C)C2)c([N+](=O)[O-])c1 (centres undefined) | inactive: 3.7% [at 46 µM] | – |

| SMILES | ratio change, negative = inhibition | Potency |
| --- | --- | --- |
| Cc1ccccc1NC(=S)NNC(=O)c1csc2c1CCC(C)C2 (centres undefined) | – | inconclusive: 35.5 µM [falling, single point] |
| CCCC(C)C(=O)Nc1ccc(F)c(Cl)c1 (centres undefined) | inconclusive: 7.4% [at 46 µM] | – |
| CCOC(=O)C1C(c2ccccc2)NC(=S)NC1(C)O (centres undefined) | inactive: 20.2% [at 9.22 µM] | – |
| O=Cc1ccc2noc(-c3ccc(Cl)cc3)c2c1 | inactive: -0.749% | – |
| CCN(CC)c1ccc(NC(=O)COc2ccccc2C#N)cc1S(=O)(=O)Nc1ccccc1OC | inactive: 10.9% | – |
| O=C(NCc1ccc(F)cc1)C(c1cccs1)N(C(=O)c1csnn1)C1CC1 (centres undefined) | inconclusive: 14.1% | – |
| O=c1nc(N/N=C/c2ccccn2)cn[nH]1 | – | inconclusive: 11.2 µM [falling, partial curve] |
| Cc1ccc(SCc2[nH]nc3c2C(c2ccc(C)o2)C(C#N)=C(N)O3)cc1 (centres undefined) | – | inconclusive: 25.1 µM [cytotoxic, single point] |
| CCC(=O)Nc1cc(NC(=O)CSc2ncc(-c3ccc(F)cc3)n2Cc2ccco2)ccc1C | inconclusive: 10.1% | – |
| COc1ccccc1C(=O)NCc1ccc(-c2nc3ccccc3s2)cc1 | – | inconclusive: 35.5 µM [fluorescent, single point] |
| O=C(Nc1ccccc1)Nc1ccc(Br)c(Cl)c1 | – | inconclusive: 20 µM [falling, single point] |
| Cc1nc(-n2nc(C)c(Cc3ccccc3Cl)c2C)sc1C(=O)N1CCCCC1C (centres undefined) | inconclusive: -13.2% [at 46 µM] | – |
| CCOc1ccc2nc(SC(CC)C(=O)Nc3cc(C)on3)sc2c1 (centres undefined) | – | inconclusive: 35.5 µM [fluorescent, single point] |
| Cc1onc(-c2c(Cl)cccc2Cl)c1-c1nnc(-c2ccc(Cl)cc2)o1 | inconclusive: -9.34% [at 46 µM] | – |
| COc1ccc(-c2[nH]c(-c3ccc(C)cc3)nc2SCC(=O)NC2CCCC2)cc1 | inconclusive: -65.6% | – |
| Cc1cc2ccccc2n1CCNC(=O)COc1ccccc1 | inactive: -8.64% | – |
| Cn1c(SCC(=O)c2cc3ccccc3o2)nnc1-c1ccccc1 | inactive: -8.18% | – |
| COc1cccc(Cn2c(-c3nonc3N)nc3ccccc32)c1 | inactive: 14.7% | – |
| CSc1nsc(SC)c1C(N)=O | inconclusive: 35.2% [at 46 µM] | – |
| COc1cccc(Cn2c(CNC(=O)C(C)C)nc3cccnc32)c1 | inactive: -11.8% [at 46 µM] | – |
| Cc1ccc2c(=O)c(C(=O)c3ccc(F)cc3)cn(CC(=O)NCc3ccccc3)c2n1 | inactive: 13.4% [at 46 µM] | – |

| SMILES | ratio change, negative = inhibition | Potency |
| --- | --- | --- |
| Cc1ncc([N+](=O)[O-])n1Cc1cccc2ccccc12 | inconclusive: -18.4% | – |
| CCOCCCNC(=O)c1ccccc1Br | inactive: 2.33% | – |
| Cn1c(=O)[nH]c(=O)c2[nH]c(N(Cc3ccccc3)Cc3ccccc3)nc21 | inconclusive: -5.57% | – |
| COc1ccc2nc(SCC(=O)Nc3ccc4c(c3)CCC4)[nH]c2c1 | inconclusive: -32.1% | – |
| COc1ccc(Nc2ncc3nc(-c4cccs4)c(=O)n(Cc4cccc(OC)c4)c3n2)cc1 | – | inconclusive: 15.8 µM [rising, single point] |
| O=C(Nc1cc(Cl)cc(Cl)c1)c1ccc(F)c(S(=O)(=O)NC2CCCC2)c1 | inconclusive: -13.7% [at 46 µM] | – |
| Cc1ccc(CNC(=O)CSc2ccsc2[N+](=O)[O-])cc1 | inconclusive: -33.2% [at 46 µM] | – |
| COC(=O)c1c(-c2cccs2)csc1NC(=O)c1ccc(Cl)cc1 | inactive: 12.8% [at 46 µM] | – |
| COc1ccc(NCC(=O)Nc2ccc(Br)cc2F)c(OC)c1 | inconclusive: -0.225% [at 46 µM] | – |
| CC1=CC(C)(C)Nc2ccc(OC(=O)CN3C(=O)c4cccc5cccc(c45)C3=O)cc21 | – | inconclusive: 35.5 µM [cytotoxic, single point] |
| CCCCCn1cnc2sc(CC)cc2c1=O | inconclusive: 3.01% | – |
| CCS(=O)(=O)N1CCC(C(=O)NCCC(C)C)CC1 | inactive: 7.74% [at 46 µM] | – |
| O=c1[nH]cnc2nc[nH]c12 | inactive: 12.4% | – |
| Cc1ccc(Nc2cc(=O)n(C3CCCCC3)c(=O)[nH]2)cc1C | inconclusive: -6.62% | – |
| Cc1cc(O)c(NC(=S)NC(=O)c2ccc(-c3ccc(Cl)cc3)o2)cc1C | inconclusive: -27.5% | – |
| CC(C)NC(=O)Cn1nnc(-c2ccc(Cl)cc2)n1 | inactive: -2.11% | – |
| COc1ccccc1-c1nc(NC2CC2)c2ccccc2n1 | inconclusive: -22.5% | – |
| O=C1CS/C(=C/C(=O)c2ccccc2)N1 | inactive: -2.57% | – |
| COc1cccc(CN(Cc2ccco2)c2cnc(S(C)(=O)=O)nc2C(=O)Nc2cccc(Cl)c2C)c1 | inactive: -3.33% [at 46 µM] | – |
| Cc1cccc(NC(=O)C2SC(=Nc3c(C)cccc3C)C(C(=O)N3CCOCC3)=C2N)c1 (centres undefined) | inactive: -20.3% | – |
| Oc1[nH]c(=S)sc1C=C1N=c2ccccc2=N1 | inconclusive: 14.2% [at 46 µM] | – |

Five neighbouring compounds out of the list so far, quoted:

| SMILES | ratio change, negative = inhibition | Potency |
| --- | --- | --- |
| CC(C)(C)c1ccc2c(c1)N(CC(=O)O)C(=O)CO2 | inactive: -4.21% | – |
| CCOc1ccc(N2C(=O)C3C(c4ccccc4F)NN(C(=O)c4ccc(C)cc4)C3C2=O)cc1 (centres undefined) | inconclusive: -1.81% | – |
| COc1cc(C)c(C(=O)Oc2cc(C)c(C(=O)O)c(O)c2C)c(OC)c1C | inconclusive: -6.98% | – |
| Cc1cc(=O)oc2cc(N3C(=O)CC(Cc4ccccc4)C3=O)ccc12 (centres undefined) | inconclusive: 7.34% [at 46 µM] | – |
| CC1CCc2c(sc3nc(CN4CCOCC4)nc(Sc4ccccc4)c23)C1 (centres undefined) | inactive: -9.2% | – |

The list continues.

| SMILES | ratio change, negative = inhibition | Potency |
| --- | --- | --- |
| Cc1ccccc1C(=O)c1c[nH]c(C(=O)NCc2cccs2)c1 | inconclusive: -29.2% | – |
| C/C(N)=C(/C#N)C(=O)COC(=O)c1cc(C)n(-c2ccc(F)cc2)c1C | – | inconclusive: 12.6 µM [falling, single point] |
| COc1cc(/C=C(\C#N)c2nc3ccc(C)cc3[nH]2)cc([N+](=O)[O-])c1O | inactive: 3.19% [at 46 µM] | – |
| Cc1nc(-c2ccncc2)sc1C(=O)Nc1ccc(Cl)cc1 | inconclusive: 22.1% [at 46 µM] | – |
| CCCCNS(=O)(=O)c1ccc2nc(NC(=O)c3cccnc3)sc2c1 | inconclusive: -1.36% [at 46 µM] | – |
| O=C(NN=C(Cc1ccccc1)Cc1ccccc1)c1ccccc1O | inconclusive: -8.59% [at 46 µM] | – |
| Cn1c(CO)cnc1SCc1ccc(F)cc1 | inconclusive: 3.97% [at 46 µM] | – |
| CC(C)CNC(=O)C(=O)NNC(=O)C1CCCCC1 | inactive: 10.5% | – |
| O=c1c2ccccc2nc(/C=C/c2cccc([N+](=O)[O-])c2)n1CCO | – | inconclusive: 14.1 µM [falling, partial curve] |
| CCOC(=O)c1ccc(NC(=O)C(CC)Sc2nc3ncccc3[nH]2)cc1 (centres undefined) | inactive: -0.0671% [at 46 µM] | – |
| COC(=O)c1ccccc1-c1ccc(/C=C2\C(=O)N(c3ccccc3)N=C2c2ccccc2)o1 | inactive: 6.52% | – |
| COc1cccc(N2CC(NC(=O)/C=C\c3ccc4c(c3)OCO4)CC2=O)c1 (centres undefined) | inconclusive: 21.4% [at 46 µM] | – |
| COc1ccc(N(CC(=O)Nc2cccnc2)S(C)(=O)=O)cc1 | inactive: -2.52% [at 46 µM] | – |
| S=C(NCCc1ccccc1)Nc1ccc(Br)cc1 | inconclusive: -13.8% | – |
| O=C(CCCn1c(=S)[nH]c2cc3c(cc2c1=O)OCO3)N1CCN(c2ccc(Cl)cc2)CC1 | – | inconclusive: 7.94 µM [fluorescent, partial curve] |
| Cc1nc2cc(N3CCCCC3)c(NC(=O)c3ccncc3)cc2c(=O)n1Cc1ccccc1 | inconclusive: 15.5% | – |
| O=C(Cc1cccs1)Nc1cccc(-c2nc3cc4ccccc4cc3[nH]2)c1 | inconclusive: 52.4% | – |
| Cc1n[nH]c(C)c1S(=O)(=O)N1CCCC(C(=O)N2CCc3ccccc32)C1 (centres undefined) | inconclusive: -31.5% | – |
| C=CCNC(C(=O)Nc1cccc(OC)c1)c1ccccc1 (centres undefined) | inconclusive: -17.7% [at 46 µM] | – |
| Cc1cccc(N(CC(=O)Nc2ccc(Br)cc2)S(C)(=O)=O)c1C | inconclusive: -16.4% [at 46 µM] | – |
| O=C(Nc1ccc(CN2CCOCC2)cc1)c1ccc(-c2cc(Cl)ccc2Cl)o1 | – | inconclusive: 14.1 µM [falling, single point] |
